Among the data in doi:10.1101/2025.08.09.669456 are binding values, retold here.

By UniProt entry, the sequences of proteins in these tests, tags left out. Where a name states a change or a piece, a line headed by the entry shows the natural chain unless it says otherwise.
UniProt P06681: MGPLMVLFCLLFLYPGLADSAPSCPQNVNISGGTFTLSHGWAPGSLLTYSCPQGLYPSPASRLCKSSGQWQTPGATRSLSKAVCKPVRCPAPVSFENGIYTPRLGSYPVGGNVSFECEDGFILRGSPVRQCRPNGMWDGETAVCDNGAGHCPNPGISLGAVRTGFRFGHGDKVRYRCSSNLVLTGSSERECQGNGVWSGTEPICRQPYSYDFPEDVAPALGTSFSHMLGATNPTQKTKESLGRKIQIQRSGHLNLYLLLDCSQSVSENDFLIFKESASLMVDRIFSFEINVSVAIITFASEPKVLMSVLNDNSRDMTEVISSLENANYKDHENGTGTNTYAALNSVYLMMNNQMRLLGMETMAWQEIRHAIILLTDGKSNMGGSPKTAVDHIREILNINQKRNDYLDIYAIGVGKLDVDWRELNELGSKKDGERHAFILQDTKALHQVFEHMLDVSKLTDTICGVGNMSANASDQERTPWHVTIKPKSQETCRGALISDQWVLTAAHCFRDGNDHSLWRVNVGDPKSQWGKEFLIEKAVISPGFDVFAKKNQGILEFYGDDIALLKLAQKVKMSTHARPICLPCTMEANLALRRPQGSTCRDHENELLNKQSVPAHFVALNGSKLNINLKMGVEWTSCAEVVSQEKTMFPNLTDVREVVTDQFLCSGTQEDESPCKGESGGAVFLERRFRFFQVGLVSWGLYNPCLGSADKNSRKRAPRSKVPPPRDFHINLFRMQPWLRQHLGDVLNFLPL
UniProt P01024: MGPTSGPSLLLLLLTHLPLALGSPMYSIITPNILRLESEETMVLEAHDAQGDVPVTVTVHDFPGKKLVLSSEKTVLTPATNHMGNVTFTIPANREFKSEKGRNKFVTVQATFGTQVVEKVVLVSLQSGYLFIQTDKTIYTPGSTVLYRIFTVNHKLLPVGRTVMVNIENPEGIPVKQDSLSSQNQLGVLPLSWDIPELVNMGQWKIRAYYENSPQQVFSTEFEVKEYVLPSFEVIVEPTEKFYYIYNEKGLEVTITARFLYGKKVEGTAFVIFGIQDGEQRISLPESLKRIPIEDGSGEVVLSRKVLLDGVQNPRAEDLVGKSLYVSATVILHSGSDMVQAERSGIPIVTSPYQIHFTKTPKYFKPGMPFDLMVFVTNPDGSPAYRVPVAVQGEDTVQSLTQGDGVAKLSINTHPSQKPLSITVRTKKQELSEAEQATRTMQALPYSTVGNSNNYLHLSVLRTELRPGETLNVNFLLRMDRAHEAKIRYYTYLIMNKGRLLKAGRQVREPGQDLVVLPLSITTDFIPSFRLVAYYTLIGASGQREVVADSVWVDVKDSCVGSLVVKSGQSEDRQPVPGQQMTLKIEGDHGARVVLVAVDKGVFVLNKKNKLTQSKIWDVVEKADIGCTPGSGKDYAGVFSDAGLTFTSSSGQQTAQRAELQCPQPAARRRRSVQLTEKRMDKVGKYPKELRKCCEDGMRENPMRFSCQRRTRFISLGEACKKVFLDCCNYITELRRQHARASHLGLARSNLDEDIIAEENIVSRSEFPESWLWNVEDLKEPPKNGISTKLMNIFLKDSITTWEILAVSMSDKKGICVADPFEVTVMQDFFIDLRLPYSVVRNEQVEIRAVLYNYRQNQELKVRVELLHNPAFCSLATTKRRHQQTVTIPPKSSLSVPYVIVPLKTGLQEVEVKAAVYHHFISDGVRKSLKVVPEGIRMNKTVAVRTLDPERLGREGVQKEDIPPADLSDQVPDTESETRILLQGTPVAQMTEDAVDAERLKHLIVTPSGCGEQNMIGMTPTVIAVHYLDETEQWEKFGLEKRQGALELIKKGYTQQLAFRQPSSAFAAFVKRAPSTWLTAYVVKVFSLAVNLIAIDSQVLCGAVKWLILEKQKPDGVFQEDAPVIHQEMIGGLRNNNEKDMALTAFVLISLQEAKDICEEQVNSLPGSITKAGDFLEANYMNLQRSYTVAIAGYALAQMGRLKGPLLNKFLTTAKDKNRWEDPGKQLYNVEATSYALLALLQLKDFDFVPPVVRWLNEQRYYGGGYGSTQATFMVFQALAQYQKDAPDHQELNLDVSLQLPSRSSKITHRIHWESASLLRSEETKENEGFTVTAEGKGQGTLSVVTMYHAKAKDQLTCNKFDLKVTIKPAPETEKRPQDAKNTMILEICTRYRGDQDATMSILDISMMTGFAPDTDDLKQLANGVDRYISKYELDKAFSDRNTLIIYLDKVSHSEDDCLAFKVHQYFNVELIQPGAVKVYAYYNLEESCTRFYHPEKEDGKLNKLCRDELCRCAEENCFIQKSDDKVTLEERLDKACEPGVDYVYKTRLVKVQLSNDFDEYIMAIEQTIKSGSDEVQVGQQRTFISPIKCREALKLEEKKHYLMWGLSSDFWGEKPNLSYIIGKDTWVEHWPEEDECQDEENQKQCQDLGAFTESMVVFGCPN

Results are given in words; binding and its absence hold for the method and conditions named. Binding calls can cover weak binding; strength is not graded here.

The assay concerns the target complement C2a (S679A), vWA–SP fragment of C2 (human) (UniProt P06681). As to the kind of experiment: cryo-EM structure.

For “complement C3 (from UniProt P01024 23-667; P01024 672-1663)”, the binding result is recorded as “binds”.
